Measured values: publication PMC4746625

Sequences of proteins named here, by UniProt entry; tags and fusion partners are left off. A change or cut given only in a name is not applied to a line headed by its entry.
UniProt Q91Z31: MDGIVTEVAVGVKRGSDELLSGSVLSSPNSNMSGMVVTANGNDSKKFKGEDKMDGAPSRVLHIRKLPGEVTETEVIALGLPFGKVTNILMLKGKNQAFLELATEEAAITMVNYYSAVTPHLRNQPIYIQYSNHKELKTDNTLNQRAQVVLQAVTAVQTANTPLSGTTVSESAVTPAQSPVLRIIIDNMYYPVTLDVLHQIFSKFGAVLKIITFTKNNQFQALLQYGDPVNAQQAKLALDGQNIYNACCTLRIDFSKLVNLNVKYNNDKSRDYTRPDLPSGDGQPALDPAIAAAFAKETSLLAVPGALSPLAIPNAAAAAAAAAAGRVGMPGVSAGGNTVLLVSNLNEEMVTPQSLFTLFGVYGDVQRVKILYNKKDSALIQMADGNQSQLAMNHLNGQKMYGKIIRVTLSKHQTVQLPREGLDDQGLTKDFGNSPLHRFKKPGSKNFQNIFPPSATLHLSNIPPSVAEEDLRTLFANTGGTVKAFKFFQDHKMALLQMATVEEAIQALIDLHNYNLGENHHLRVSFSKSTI

The sequences below were run against PTBP2 (nPTB) (UniProt Q91Z31) (assay: EMSA). Details: 2 ug protein, 10 nM probe, 5 mM Mg2+, tRNA; 10 mM HEPES pH 7.9, 50 uM EDTA, 10% glycerol, 1 mM DTT, 5 mM MgCl2, 0.5 ug/ml BSA, 12.5 ng/ml tRNA, 15 min, room temperature; 8% native PAGE in TBE; recombinant protein; protein details: His; label: DIG; probe letters rebuilt from the primers and the genome; part of a longer molecule.

Sequence	binding result
AAGCCUGCCAUUUUACCAGCAUUAUUGUAGUUUAAUGAUUGAAUGUAGACAGGGAUAUGCGUAUAGUUUUCAGUAUUAGUUCUAGAUAACACUAAAUUAACUACUGUUAGGUUGAGUAUGGUGGGGUCAG [Nova1 3'UTR F3]	no binding
GAGUGUCCCCAUUAUACGUCAGAGUGUUUUAACCCCUCCUUUGCCCCAUUUGGAAGAAGGAUGUACUGUACUUUGCAGAAGUGAAGUUUUUCUGUUAUUAAUAUAUAAUUAUGCAAAUGAAUGCGACUAUG [Nova1 3'UTR F1]	binds
GAGUGUCCCCAUUAUACGUCAGAGUGUUUUAACCCCUGGUUUGCCCCAUUUGGAAGAAGGAUGUACUGUACUUUGCAGAAGUGAAGUUUUUCUGUUAUUAAUAUAUAAUUAUGCAAAUGAAUGCGACUAUG [Nova1 3'UTR mF1 (UCCU, CC to GG)]	no binding

The exact form of at least one protein or probe is not confirmed. A negative result means that nothing was seen under these conditions.
